Test results reported in PubChem BioAssay AID1487 (National Center for Advancing Translational Sciences (NCATS), 2009).
Out of some 200,000 compounds screened, about 25 (0.01%) were called active. Inconclusive results, whose numbers are uncertain, are shown with a selection of clear calls. Calls come from the whole dose curve; as a rule, active = well fitted inhibition curve with a large enough effect in the signal ratio, with a control signal flat (not every such curve was filed as active); inconclusive = small, poorly fitted or top-dose-only effect, or effect the other way, or a change in a side signal; inactive = flat fitted curve, though single readings scatter; the % refers to the signal ratio. Where the call is inconclusive, the potency comes from a doubtful curve fit.

Assay: qHTS Assay for Modulators of Lamin A Splicing
Details: HeLa LMNA splicing GFP/RFP minigene ratio, 48 h; ratio change, negative = inhibition: at 46.1 µM (top of the series) unless noted
How it was run: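 S3 HeLa cells stably expressing lamin A-EGFP splicing minigene plus DsRed2, 600 cells/well, 48 h compound exposure at 37C. Laser-scanning cytometry; analysed as GFP (500-530 nm)/RFP (575-640 nm) total intensity ratio; 0.5% DMSO vehicle.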
% is set by controls: 0 for no effect and ±100 for the full control effect; potency is the fitted concentration of half-maximal effect.

Structure (SMILES) | ratio change, negative = inhibition | Potency
CCOc1ccc(NS(=O)(=O)c2ccc3c(c2)CCN3C(=O)CCC(=O)O)cc1 | inactive: -3.98% [at 0.0737 µM] | 
COC(=O)NC(NC(=S)Nc1ccccc1OC)C(Cl)(Cl)Cl (stereo not drawn) | inactive: -16.7% | 
COC(=O)c1ccc(C(=O)OC)c(NC(=S)N2CCN(c3ccc(F)cc3)CC2)c1 | inconclusive: 11.8% | 
CC(=O)OCC1OC(n2cnc3c(=O)[nH]cnc32)C(OC(C)=O)C1OC(C)=O (stereo not drawn) | inactive: -3.17% | 
CC(=O)c1cccc(NS(=O)(=O)c2ccc(N/C=C\C(=O)c3ccc(F)cc3)cc2)c1 | inactive: 1.96% | 
CSCCOC(=O)c1[nH]c2c(c1C)C(=O)CC(c1ccco1)C2 (stereo not drawn) |  | inconclusive: 2.51 µM [falling, full curve, poor fit]
COc1cccc(-c2nn(C)c3sc(C(=O)N4CCN(c5ccccn5)CC4)cc23)c1 | inconclusive: -28% | 
NC(=O)c1ccc(NC(=O)COC(=O)C2(c3ccccc3F)CCCC2)cc1 | inconclusive: -25.2% [at 46 µM] | 
CCCCOc1cc(C(=O)NCCN(CC)CC)c2ccccc2n1 | inconclusive: 1.92% | 
Cc1ccccc1NC(=S)N1CCC(NC(=O)c2ccco2)CC1 | inconclusive: -10.9% [at 46 µM] | 
O=S(=O)(c1ccc(NC(=S)NCc2cccnc2)cc1)N1CCCCC1 |  | inconclusive: 0.631 µM [activator, partial curve, poor fit]
CCOCCCNC(=O)c1cc(Sc2ccc(C)cc2)nc2ccccc12 | inconclusive: -36.3% | 
COC(=O)Nc1ccc(S(=O)(=O)N2CCC(C(=O)N3CCCCC3C)CC2)cc1 (stereo not drawn) | inconclusive: -11% [at 46 µM] | 
C/C(=C\C(=S)Nc1ccccc1)Nc1ccc2ccccc2c1 | inactive: 1.5% | 
O=C(COc1ccc([N+](=O)[O-])cc1)Nc1nc2c(s1)CCCC2 | inactive: 12.4% [at 46 µM] | 
CCc1ccc(C2NC(=S)NC3=C2C(=O)CC(C)(C)C3)cc1 (stereo not drawn) | inactive: -13.3% | 
CCOc1cc(C2c3c(n[nH]c3C)C(=O)N2c2ccc(Br)cc2)ccc1O (stereo not drawn) | inconclusive: -31% | 
COc1ccc(-c2[nH]c(-c3ccccc3)nc2SCC(=O)Nc2nccs2)cc1 | inconclusive: 94.3% | 
COc1ccc(C(=O)Nc2cccc(-c3nc4ncccc4o3)c2C)cc1OC | inactive: 11.7% | 
CCOC(=O)c1sc(NC(=O)CSc2nccc(C)n2)nc1C | inconclusive: -26.7% [at 46 µM] | 
COc1cccc(C2C3CN(C)CC=C3C(C#N)=C(N)C2(C#N)C#N)c1OC (stereo not drawn) | inactive: -16.9% | 

Structure (SMILES) | ratio change, negative = inhibition | Potency
O=C(c1ccccc1)N1CCCCCC1 | inactive: -6.17% | 
CCOC(=O)c1c(-c2ccccc2)csc1NC(=O)CSc1ccccc1 |  | inconclusive: 35.5 µM [fluorescent, single point]
COc1cc(OC)c(OC)cc1CN1CCCC(C(=O)c2ccccc2SC)C1 (stereo not drawn) | inconclusive: -13.1% [at 46 µM] | 
O=C(CSCc1c(F)cccc1Cl)NCc1ccncc1 | inconclusive: 2.76% [at 46 µM] | 
O=C(Cn1cnc2ccccc21)N/N=C/c1ccccc1 | inconclusive: 12.4% [at 46 µM] | 
CCN(c1ccccc1)S(=O)(=O)c1ccc(C(=O)Nc2nnc(C3CC3)o2)cc1 | inconclusive: -11.8% [at 46 µM] | 
CS(=O)(=O)CCSc1ncccc1C(=O)NCc1cccs1 | inactive: -18.6% [at 46 µM] | 
Nc1nc(=S)[nH]c2c1C1(CCCC1)Cc1ccccc1-2 | inactive: 3.94% | 
Cn1nnnc1SCC(=O)c1ccc(Br)s1 | inconclusive: -1.72% | 
O=C(Nc1ccc(Cl)cc1)C1CCC(=O)N1Cc1ccccc1Cl (stereo not drawn) | inactive: 19% | 
CN(C)c1ccc(CNC(=O)Cn2c(=O)oc3cc(S(=O)(=O)N4CCCCCC4)ccc32)cc1 | inconclusive: 19.1% [at 46 µM] | 
COc1ccccc1OCC(=O)n1cc(C(=O)c2cc(Cl)cc(Cl)c2O)cn1 | inactive: 4.45% | 
CC(=O)Nc1ccc(OS(=O)(=O)c2ccc([N+](=O)[O-])cc2)cc1 | inconclusive: -10.6% [at 46 µM] | 
Nc1nc(CN2CCN(c3ccccn3)CC2)nc(Nc2ccc(Cl)cc2)n1 | inconclusive: -34.9% | 
COc1ccccc1OC(C)C(=O)Nc1cccc(-c2nc3ccccc3o2)c1 (stereo not drawn) | inactive: -10.1% [at 46 µM] | 
O=C(N/N=C\c1cccc([N+](=O)[O-])c1O)C1COc2ccccc2O1 (stereo not drawn) |  | inconclusive: 35.5 µM [falling, single point]
CC1=CC(=C(C#N)C#N)C=C(C)N1CCC(C)C | inconclusive: -6.85% [at 46 µM] | 
COc1cc(C2C(C#N)=C(N)Oc3cc(N)ccc32)cc(OC)c1OC (stereo not drawn) | inconclusive: -6.05% | 
COc1ccc(N/C=C\C(=O)c2ccc(Br)cc2)cc1OC | inactive: -6.32% | 
CC(=O)Nc1ccc(-c2nnc(SCC(=O)Nc3ccc4c(c3)oc3ccccc34)n2C)cc1 | inactive: -3.55% [at 0.0737 µM] | 
CC(C)CCC(C)NC(=O)c1ccc2nccnc2c1 (stereo not drawn) | inconclusive: -17.6% [at 46 µM] | 

Structure (SMILES) | ratio change, negative = inhibition | Potency
COc1cc(-c2nnc(SCC(=O)c3cc(C)n(CC4CCCO4)c3C)o2)cc(OC)c1OC (stereo not drawn) | inactive: -12.3% | 
Cc1cccc(NCc2ccc(O)c3ncccc23)c1 | inconclusive: 75.6% [at 46 µM] | 
Cc1ccc(-c2nc(C#N)c(N3CCCCC3)o2)cc1 | inactive: 2.3% | 
CCc1ccc2[nH]c(=O)c(C(c3nnnn3CCOC)N3CCN(c4ccc(F)cc4)CC3)cc2c1 (stereo not drawn) | inactive: -1.12% | 
COCc1cc(C)nc(SCC(=O)Oc2ccc(Cl)cc2)c1C#N | inconclusive: -5.35% [at 46 µM] | 
NS(=O)(=O)c1ccc(CCNC(=O)CCC2COc3ccccc3O2)cc1 (stereo not drawn) | inactive: -10.3% | 
CCCCC1=CC2=CC(=O)C(C)(OC(=O)CC)C(=O)C2=CN1Cc1ccccc1 (stereo not drawn) | inconclusive: -0.92% [at 9.22 µM] | 
C[C@@H](NC(=O)/C(C#N)=C/c1ccc(O)c(O)c1)c1ccccc1 |  | inconclusive: 11.2 µM [inhibitor, partial curve]
COc1ccc(-c2c(C)c3ccc(OCC(C)=O)cc3oc2=O)cc1 |  | inconclusive: 35.5 µM [inhibitor, single point]
CC1CCCCC1NC(=O)c1cn(C)c2ccc(S(=O)(=O)N3CCCC3)cc2c1=O (stereo not drawn) | inactive: 9.44% | 
CCCCOc1ccc(CSCCNC(=S)Nc2ccccc2)cc1 |  | inconclusive: 35.5 µM [falling, single point]
Cc1cnc(NC(=O)c2cc3c(C)nn(Cc4ccccc4Cl)c3s2)s1 | inactive: -5.48% | 
COc1ccc(N2CCN(C(=O)CSc3nnc(COc4cccc5cccnc45)o3)CC2)cc1 | inconclusive: -12.8% | 
O=C(CSc1nc2ccccc2[nH]1)Nc1cc(C(F)(F)F)ccc1N1CCOCC1 | inconclusive: -38.2% | 
Cc1ccc(CNC(=O)Nc2cc(C(=O)NCc3ccc(C(C)C)cc3)ccc2N2CCCC2)cc1 | inconclusive: 2.66% [at 46 µM] | 
Cc1cc(=O)oc2cc(OCC3CC(c4ccccc4Cl)=NO3)ccc12 (stereo not drawn) | inconclusive: -27.2% | 
O=C(CN1C(=O)CCC1=O)Nc1ccc(S(=O)(=O)N2CCOCC2)cc1 | inconclusive: 14.3% [at 46 µM] | 
O=c1c2c(nc3nc(NCc4cccc(Cl)c4)[nH]n13)CCC2 | inconclusive: -11.3% [at 46 µM] | 
CSc1nc(Nc2ccc(F)cc2)cc(-c2ccccc2)n1 |  | inconclusive: 35.5 µM [cytotoxic, single point]
CCc1ccccc1NC(=O)Cn1cc(S(=O)(=O)N2CCCC2)c(S(=O)(=O)N2CCCC2)c1 | inconclusive: -13.6% [at 46 µM] | 
O=C(O)c1ccc(N=C2SCC(=O)N2Cc2ccccc2)cc1 | inconclusive: 1.27% [at 46 µM] | 

A draw from above in order of molar mass, smallest number first.
Structure (SMILES) | ratio change, negative = inhibition | Potency
CSc1nc(Nc2ccc(F)cc2)cc(-c2ccccc2)n1 |  | inconclusive: 35.5 µM [cytotoxic, single point]
COc1ccc(-c2c(C)c3ccc(OCC(C)=O)cc3oc2=O)cc1 |  | inconclusive: 35.5 µM [inhibitor, single point]
CCCCC1=CC2=CC(=O)C(C)(OC(=O)CC)C(=O)C2=CN1Cc1ccccc1 (stereo not drawn) | inconclusive: -0.92% [at 9.22 µM] | 
O=C(CSc1nc2ccccc2[nH]1)Nc1cc(C(F)(F)F)ccc1N1CCOCC1 | inconclusive: -38.2% | 

Going on with the list:

Structure (SMILES) | ratio change, negative = inhibition | Potency
CC(C)(C)c1nnc2sc(SCC(=O)N3CCCc4ccccc43)nn2c1=O | inconclusive: 2.7% | 
COc1ccc(OCC(=O)Nn2c(-c3cccc(OC)c3)nc3ccccc3c2=O)cc1 | inconclusive: 3.39% | 
CSc1nc(N(CCO)CCO)c2sc3nc(-c4ccco4)c4c(c3c2n1)CCC4 | inactive: 19% | 
O=C(NCc1ccco1)c1ccc(S(=O)(=O)N2CCCCC2)cc1 | inactive: -9.47% [at 46 µM] | 
Cc1nc2[nH]c(=S)n(C)c(=O)c2nc1C | inconclusive: -6.38% | 
O=C(NCc1ccc2c(c1)OCO2)c1ccc2c(c1)N(Cc1ccccc1F)C(=O)c1ccccc1S2 | inconclusive: -0.78% [at 46 µM] | 
O=C1NCC(COCC2CC=CCC2)O1 (stereo not drawn) | inconclusive: 1.99% | 
Nc1cc(Br)c(N)c(Br)c1 | inactive: 0.0285% | 
Cc1ccc(NC2=C(Cl)C(=O)OC2OC(=O)c2ccccc2)c(C)c1 (stereo not drawn) | inconclusive: 24.8% [at 9.22 µM] | 
CCSc1nc2n(n1)C(c1ccc(Cl)cc1Cl)C(C(=O)Nc1ccccc1C)=C(C)N2 (stereo not drawn) | inconclusive: 41.1% [at 46 µM] | 
Cc1ccc(-n2ncc3c(NCc4ccccc4)ncnc32)cc1Cl | inactive: -11.2% [at 46 µM] | 
COc1cc(NC(=O)c2cccs2)c(OC)cc1NC(=O)c1ccco1 | inactive: -4.66% | 
CN(C)S(=O)(=O)c1ccc(C(=O)OCC(=O)Nc2sc3c(c2C#N)CCCCC3)cc1 | inactive: 2.95% | 
C/C(=N\NC(=O)c1cc(C)nc2ccccc12)c1ccco1 |  | inconclusive: 35.5 µM [falling, single point]
COc1ccc(-c2cc(C(=O)N3CCOCC3)c3cc(C)ccc3n2)cc1 | inactive: -1.38% | 
O=C(NC1CCCCC1)[C@H](CSCc1ccccc1)N1Cc2ccccc2C1=O | inconclusive: -44.8% | 
O=C(/C=C/c1ccc2c(c1)OCO2)NCc1ccc(F)cc1 | inconclusive: -12% | 
COc1ccccc1-n1c(C)c2c(OC)cccc(=O)c2c1C | inconclusive: 6.42% | 
COc1cccc(CN2C(=O)c3ccccc3Sc3ccc(C(=O)OCc4ccco4)cc32)c1 | inconclusive: -1.08% [at 46 µM] | 
CCOc1cc(C(c2c(C)[nH][nH]c2=O)c2c(C)[nH][nH]c2=O)ccc1OC(=O)c1cccc([N+](=O)[O-])c1 | inactive: 4.26% | 
